This assay is described as follows: qHTS Assay for Lipid Storage Modulators in Drosophila S3 Cells.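 As to cell number change: cells counted by Cell Tracker Red CMTPX staining in the red channel.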 The conditions noted are these: BODIPY lipid droplet fluorescence, 18-24 h; for cell number change: measured here: cell count max response, cells fed with added oleic acid. In short, it runs like this:
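Drosophila S3 cells got compounds at several concentrations plus oleic acid (400 uM solution). Laser-scanning cytometry with 488 nm excitation read lipid droplets at 500-530 nm and cells at 575-640 nm. Percent activity was relative to 20 uM Triacsin C.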
(In general: In qHTS, concentration-response curves come from the screen itself.)

Where [1] appears, read: measured here: cell number channel AC50, cells fed with added oleic acid.
Where [2] appears, read: measured here: lipid fluorescence (Fed channel) AC50, cells fed with added oleic acid.

Some of the results follow. Further columns of the screen follow, without active or inactive calls. The list favours compounds with an active or inconclusive main result. The note in brackets gives the kind of curve behind each potency; many fits are weak.

This is an account of results in PubChem BioAssay AID2685 (National Center for Advancing Translational Sciences (NCATS), 2010).

As for `COc1ccc(CC(=O)NCC2(c3ccc(OC)c(OC)c3)CCOCC2)cc1`, the cell number change is -4.8%.
In the case of `O=C(Nc1ccncc1)Nc1ccc(Cl)cc1`, under setting [1], the AC50 – broadly, the concentration giving half of the maximal activity seen – is 0.731 µM [falling, single point].
As for `CC(C)N(Cc1ccccc1)C(=O)CSc1nccn1C`, the cell number change was -35.9%.
For `Cc1ccc(C)c2nc(SCC(=O)N3CCCc4ccccc43)c(C#N)cc12`, under setting [2], the AC50 was 6.51 µM [rising, partial curve, poor fit].
Consider `COc1cccc(NC(=S)N(CCCN2CCCC2)Cc2cccn2Cc2ccc(Cl)cc2)c1`, for which the cell number change is -46%. Also, the AC50 under setting [1] was 7.31 µM [falling, partial curve]. For the same compound, the concentration at half-maximal activity (AC50) under setting [2] was 29.1 µM [falling, single point].
In the case of `O=C(CSc1nnnn1-c1ccccc1)NC(=O)Nc1ccc2c(c1)OCCO2`, the cell number change is -19.6%. The concentration at half-maximal activity (AC50) under setting [1] was 0.0291 µM [falling, full curve, poor fit].
For `CC(C)c1ccc(C(=O)NN2CCOCC2)cc1`, the cell number change was 6.49%.
With `CN(C)c1ccc(NC(=O)CC(NCc2ccccn2)C(=O)O)cc1` (stereo not drawn), the cell number change turned out to be 44.3%. The concentration at half-maximal activity (AC50) under setting [1] is 29.1 µM [rising, single point]. Under setting [2], the half-maximal activity concentration (AC50) was 3.26 µM [falling, single point].
With `C/C=C(\C)CN1CCc2cc(OC)c(OC)cc2C1`, the cell number change was -36.3%. The half-maximal activity concentration (AC50) under setting [1] was 7.31 µM [falling, partial curve, poor fit].
In the case of `Cc1ccc(NC(=O)NCc2nc3ccccc3n2C)cc1`, the cell number change is 16%. Under setting [1], the half-maximal activity concentration (AC50) was 0.00411 µM [rising, full curve, poor fit]. For the same compound, under setting [2], the half-maximal activity concentration (AC50) is 0.103 µM [rising, partial curve, poor fit].
Take `Cc1cc(C)c(-c2cc(C(=O)Nc3c(C)n(C)n(-c4ccccc4)c3=O)[nH]n2)c(O)c1`: the cell number change turned out to be 25.5%. Further, the AC50 under setting [2] was 29.1 µM [rising, single point].
For `O=C(N/N=C\c1ccccc1)c1ccccc1-n1cccc1`, the cell number change is -14.1%.
On to `O=C(Nc1nc(-c2ccccc2)cs1)c1ccc(Br)o1`, for which the cell number change is -29.1%. For the same compound, the half-maximal activity concentration (AC50) under setting [2] is 10.3 µM [falling, partial curve, poor fit].
For the compound `O=C(NCCC1=CCCCC1)C1CCN(c2nc3ccccc3o2)CC1`, the cell number change worked out at 9.28%. Also, the AC50 under setting [2] is 2.06 µM [falling, full curve].
With `CC(=O)n1cc(C(C[N+](=O)[O-])SCCN)c2ccccc21` (stereo not drawn), the cell number change is -57.2%. Moreover, under setting [1], the AC50 is 29.1 µM [falling, single point]. Under setting [2], the AC50 is 14.6 µM [falling, partial curve].
For `CCOC(=O)CNc1c(N2CCN(c3ccccn3)CC2)c(=O)c1=O`, the cell number change was found to be 10.1%.
In the case of `Cc1cc(C)cc(-n2nnnc2SCC(=O)Nc2cccc(NC(=O)c3ccco3)c2)c1`, the cell number change is -20.1%. The concentration at half-maximal activity (AC50) under setting [2] is 14.6 µM [falling, single point].
As for `O=C(NCc1ccco1)c1ccccc1`, under setting [2], the AC50 is 0.58 µM [falling, full curve].
On to `O=C1CCN(Cc2ccc(O)cc2)CCN1CCO`, for which the cell number change turned out to be 11.3%. In addition, the AC50 under setting [2] was 4.11 µM [rising, partial curve].
`CC(C)(C)c1ccc(-c2noc(CCC(=O)NCC3CCCO3)n2)cc1` (stereo not drawn): the cell number change is -65.7%. The AC50 under setting [1] was 23.1 µM [falling, partial curve]. Also, under setting [2], the half-maximal activity concentration (AC50) was 20.6 µM [falling, partial curve].
As for `Cc1sc2ncn(CC(=O)N3CCCCC3)c(=O)c2c1C`, the cell number change is -13.9%. Further, the concentration at half-maximal activity (AC50) under setting [1] was 3.66 µM [falling, single point]. Further, under setting [2], the half-maximal activity concentration (AC50) was 3.26 µM [falling, single point].
Turning to `CCOC(=O)c1ccc(CN2C(=O)c3ccccc3S2(=O)=O)cc1`, the cell number change came to 1.4%. In addition, under setting [1], the AC50 is 0.058 µM [rising, full curve, poor fit].
Turning to `CCCCC(NC(=O)Cc1c(C)c2cc3c(C)c(C)oc3c(C)c2oc1=O)C(=O)O` (stereo not drawn), the cell number change is 37.5%. The AC50 under setting [1] is 0.517 µM [rising, full curve, poor fit]. The concentration at half-maximal activity (AC50) under setting [2] was 29.1 µM [rising, single point].
With `COc1ccc(-c2noc(CSc3nnc(CCc4ccccc4)n3-c3ccccc3)n2)cc1OC`, the cell number change is 10.8%. The half-maximal activity concentration (AC50) under setting [2] was 0.0259 µM [rising, full curve, poor fit].
Consider `CC(=O)c1cccc(NC(=O)C(C)OC(=O)CCC2CCCCC2)c1` (stereo not drawn), for which the cell number change was -13.3%. Further, the AC50 under setting [1] was 4.61 µM [falling, single point]. Besides, the concentration at half-maximal activity (AC50) under setting [2] is 0.651 µM [falling, full curve, poor fit].
As for `COc1ccccc1-c1cc(C(=O)N2CCN(c3ccccc3)CC2)no1`, the cell number change stood at 33%. Under setting [1], the half-maximal activity concentration (AC50) was 32.6 µM [rising, single point]. Under setting [2], the AC50 was 29.1 µM [rising, single point].
For the compound `O=c1[nH]c(-c2ccc(Cl)cc2)nc(=S)[nH]1`, the cell number change was 6.09%. Also, the half-maximal activity concentration (AC50) under setting [2] was 0.651 µM [falling, single point].
Consider `O=[n+]1c2c(n([O-])c3cc(F)ccc31)CCCC2`, for which the cell number change came to 20.7%. In addition, the AC50 under setting [2] is 29.1 µM [rising, single point].
For `CCc1ncc(CN2CCCC(C(=O)Nc3ccc(-c4cscn4)cc3)C2)cn1` (stereo not drawn), the cell number change is 114%. Further, the concentration at half-maximal activity (AC50) under setting [1] was 29.1 µM [rising, partial curve, poor fit].
Turning to `CCOC(=O)c1cc(NC(=O)N(CC)CC)c(C)nc1C`, the cell number change was found to be 30%. The half-maximal activity concentration (AC50) under setting [2] is 0.184 µM [rising, full curve, poor fit].
Turning to `Cc1ccc(NC(=O)CN(C)c2ccc(S(=O)(=O)N3CCN(C)CC3)cn2)cc1`, the cell number change is -28.3%. For the same compound, the AC50 under setting [2] was 14.6 µM [rising, partial curve, poor fit].
On to `Oc1ccc(C2C=C(c3ccc(F)cc3)Nc3ncnn32)cc1` (stereo not drawn), for which the cell number change was 21.5%. Besides, the AC50 under setting [2] was 0.103 µM [rising, full curve, poor fit].
On to `CCOc1ccc2nc(NC(=O)C3CCCN(S(=O)(=O)c4cccs4)C3)sc2c1` (stereo not drawn), for which the cell number change is -62.7%. The AC50 under setting [1] was 18.4 µM [falling, partial curve]. Further, the AC50 under setting [2] is 9.2 µM [falling, partial curve].
Turning to `COc1ccc(-n2c(O)c(C=NCc3ccccn3)c3ccccc3c2=O)c(OC)c1`, the cell number change amounted to 11.3%. Further, the concentration at half-maximal activity (AC50) under setting [2] is 0.651 µM [rising, full curve, poor fit].
Turning to `CCOc1ccc(NC(=O)CN(C)C(=O)c2ccc(C)o2)cc1OCC`, the cell number change came to 38.3%. Besides, the half-maximal activity concentration (AC50) under setting [1] was 3.26 µM [rising, partial curve]. Also, the half-maximal activity concentration (AC50) under setting [2] is 29.1 µM [rising, single point].
Consider `CCCc1ccc(S(=O)(=O)N2CCN(C(C)C(=O)NC3CCCC3)CC2)cc1` (stereo not drawn), for which the cell number change turned out to be 201%. Further, under setting [1], the AC50 is 29.1 µM [rising, single point].
As to `Cc1cc(C)c2[nH]c(=O)c(CN(Cc3ccc4c(c3)OCO4)Cc3nnnn3C3CCCC3)cc2c1`, the cell number change was -12.5%. Besides, the concentration at half-maximal activity (AC50) under setting [1] was 0.461 µM [rising, full curve, poor fit]. Besides, the half-maximal activity concentration (AC50) under setting [2] was 16.4 µM [rising, partial curve].
As for `CC(OC(=O)CN1C(=O)NC2(CCCCC2C)C1=O)c1ccccc1` (stereo not drawn), the cell number change worked out at 8.96%. Moreover, the half-maximal activity concentration (AC50) under setting [1] is 0.00517 µM [falling, full curve, poor fit]. Further, under setting [2], the concentration at half-maximal activity (AC50) is 0.0206 µM [falling, full curve].
Consider `COc1cccc(N2CCN(C(=O)c3oc4ccccc4c3NC(=O)CCc3cc(OC)no3)CC2)c1`, for which the cell number change is -5.67%.
In the case of `CC(=O)C1=C(O)C(=O)N(c2cccnc2)C1c1cccc([N+](=O)[O-])c1` (stereo not drawn), the cell number change was -14.3%. Also, under setting [2], the AC50 was 18.4 µM [falling, single point].
Turning to `COc1cc(Cl)c(S(=O)(=O)N2CCOCC2)cc1Cl`, under setting [2], the AC50 is 0.651 µM [falling, full curve].
Turning to `O=C(Nc1ccc([N+](=O)[O-])c(NC(=O)C2CCCO2)c1)C1CCCO1` (stereo not drawn), the cell number change was found to be 39.2%. Under setting [1], the AC50 was 23.1 µM [rising, single point]. Also, the concentration at half-maximal activity (AC50) under setting [2] was 2.31 µM [falling, single point].
For `CC(C)NC1=C(Cl)C(=O)c2ccccc2C1=O`, the cell number change was -11.1%. Besides, the AC50 under setting [1] is 4.11 µM [falling, single point]. Besides, the half-maximal activity concentration (AC50) under setting [2] is 2.31 µM [rising, single point].
For `CCOc1cc(C(=O)O)ccc1OCCOc1ccccc1`, the cell number change was found to be 8.97%.
Turning to `O=C(COC(=O)c1ccco1)Nc1ccc([N+](=O)[O-])cc1Cl`, the cell number change is -3.57%. In addition, the concentration at half-maximal activity (AC50) under setting [1] is 6.51 µM [falling, single point].
As for `COc1cccc(NC(=O)CN(C)S(=O)(=O)c2ccc(C)cc2)c1`, the cell number change is 7.59%. Moreover, under setting [2], the AC50 was 1.3 µM [rising, full curve].
Consider `COC(=O)[C@H](C)[C@H]1C[C@]1(C)[C@H](NC(=O)OCc1ccccc1)c1ccccc1`, for which the cell number change amounted to 12.8%. In addition, the AC50 under setting [2] is 29.1 µM [rising, single point].
In the case of `O=C(c1cccc2ccccc12)N1CCN(Cc2ccccc2F)CC1`, under setting [2], the AC50 was 2.06 µM [falling, partial curve].
Consider `Cn1nc(C(F)(F)F)c(-c2ccc(Br)cc2)c1NC(=O)C1CCC1C(=O)O` (stereo not drawn), for which the cell number change was -37.8%. In addition, the AC50 under setting [1] was 7.31 µM [falling, full curve, poor fit]. Further, the AC50 under setting [2] is 2.06 µM [falling, partial curve].
Consider `CCSc1nnc(-c2cccnc2)n1-c1ccc(Cl)c(C)c1`, for which the cell number change was 12%. The AC50 under setting [2] is 0.103 µM [rising, full curve, poor fit].
With `CCN(CC)S(=O)(=O)c1ccc(N2CCOCC2)c(NS(=O)(=O)c2cccs2)c1`, the cell number change worked out at 0.711%. For the same compound, the concentration at half-maximal activity (AC50) under setting [1] was 0.517 µM [rising, full curve]. Also, the AC50 under setting [2] is 8.2 µM [falling, partial curve].
Take `O=C(Nc1ccc([N+](=O)[O-])cc1Br)c1cc2ccccc2nc1Cl`: the cell number change came out at 11%. Moreover, the AC50 under setting [2] was 0.651 µM [rising, full curve].
Regarding `CC1(C(=O)OCC(=O)Nc2ccc(C(N)=O)cc2)CC1(Cl)Cl` (stereo not drawn), the cell number change came to 49.6%. The AC50 under setting [1] is 29.1 µM [rising, single point]. Under setting [2], the AC50 is 0.651 µM [falling, partial curve, poor fit].
As for `COc1ccc(Nc2ccc(C(N)=O)cc2[N+](=O)[O-])cc1`, the cell number change stood at 12.1%. In addition, the AC50 under setting [1] was 0.184 µM [rising, full curve, poor fit]. Moreover, the concentration at half-maximal activity (AC50) under setting [2] was 6.51 µM [rising, single point].
With `CCNc1nc(NCC)nc(Oc2ccc(OCc3ccccc3)nn2)n1`, the cell number change was 44%. Moreover, under setting [1], the AC50 was 29.1 µM [rising, partial curve, poor fit]. Under setting [2], the concentration at half-maximal activity (AC50) was 29.1 µM [rising, single point].
